# Laboratory results: PubChem BioAssay AID1259405 (NCATS, 2018)
# Screen: 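Silenced genes that increase secreted GFP made by CHO cells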 (primary screen)
# Cell system: Chinese hamster CHO-K1 ovary cells with stable secreted eGFP expression
# Reagents: single siRNA against mouse genes, 0.8 pmol siRNA per well (2 µl of 400 nM stock)
# Duration: 3 days
# Read-out: 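Per-well intracellular GFP measured by laser scanning cytometry, plus viability from ATP luminescence, each relative to plate median of non-targeting control wells, in %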
# Scale: GFP, % of control: higher = more GFP per well, higher productivity; viability (ATP), % of control: higher = more viable cells (more ATP)
# Active means: 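Called active when intracellular GFP, relative to negative control, is at or above 120%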
# The whole screen tested about 50,000 reagents; below is an unselected part. In the full data, about 4,000 (8%) got an active call. 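Mouse siRNA library applied to hamster cells; one well for each siRNA.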 Entries without a mark were called inactive. Reagents against one gene are numbered here. Reagent sequences are not shown.
Target gene,reagent,"GFP, % of control","viability (ATP), % of control"
Oacyl (GeneID 319888),1,64.4,75.7
Oacyl (GeneID 319888),2,84.1,105
Oacyl (GeneID 319888),3,82.5,95.6
Mtg1 (GeneID 212508),1,98.6,64.8
Mtg1 (GeneID 212508),2,66.3,65.7
Mtg1 (GeneID 212508),3,53.1,51.1
Ndufb4 (GeneID 68194),1,67,57.2
Ndufb4 (GeneID 68194),2,123 (active),56.1
Or10j7 (GeneID 258758),1,81.6,85.6
Or10j7 (GeneID 258758),2,71.7,83
Or10j7 (GeneID 258758),3,87.7,96.4
Tnfrsf25 (GeneID 85030),1,112,102
Tnfrsf25 (GeneID 85030),2,74.6,91.5
Tnfrsf25 (GeneID 85030),3,94.7,80.9
Cenps (GeneID 69928),1,37.2,39.9
Cenps (GeneID 69928),2,155 (active),55.1
Cenps (GeneID 69928),3,66.3,73.2
Pygm (GeneID 19309),1,110,92.5
Pygm (GeneID 19309),2,92.1,121
Pygm (GeneID 19309),3,111,111
Defa5 (GeneID 13239),1,61.7,84
Defa5 (GeneID 13239),2,103,81.8
Defa5 (GeneID 13239),3,88.1,100
Klra16 (GeneID 27424),1,66.4,57.9
Klra16 (GeneID 27424),2,96.7,71.4
Klra16 (GeneID 27424),3,76,64.5
Rnase12 (GeneID 497106),1,86.9,55.1
Rnase12 (GeneID 497106),2,74.8,59.8
Rnase12 (GeneID 497106),3,25.5,37.9
Ogfr (GeneID 72075),1,88.6,113
Ogfr (GeneID 72075),2,147 (active),109
Ogfr (GeneID 72075),3,48,74.3
Jrk (GeneID 16469),1,70.1,93
Jrk (GeneID 16469),2,79.1,85.9
Jrk (GeneID 16469),3,55.6,86

Reformatted: 4 of the entries above
Target gene | reagent | GFP, % of control | viability (ATP), % of control
Klra16 (GeneID 27424) | 1 | 66.4 | 57.9
Klra16 (GeneID 27424) | 2 | 96.7 | 71.4
Klra16 (GeneID 27424) | 3 | 76 | 64.5
Rnase12 (GeneID 497106) | 1 | 86.9 | 55.1
